# Among all 300,000 compounds or so, about 3,700 (1.2%) were called active. Inconclusive means that the source gave no clear call. Such entries were picked first, then a sample of the others. Calls come from the whole dose curve; tested in HEK293 cells. Potencies of inconclusive entries are doubtful fits and often do not repeat.
# Assay: qHTS for Inhibitors of binding or entry into cells for Lassa Virus; note: nearly all actives have a fitted effect of over 50% in size
# Conditions: Lassa virus pseudotype entry inhibition, cell reporter; activity change, negative = inhibition: at 37.9 µM (top of the series) unless noted
# % is set by controls: 0 for no effect and ±100 for the full control effect; potency is the fitted concentration of half-maximal effect.
SMILES,"activity change, negative = inhibition",Potency
CCC(=O)OCC(=O)N=c1sccn1Cc1ccccc1Cl,inactive: 5.47%,–
O=C(Nc1ccc(C2SCCS2)cc1)c1ccccc1,–,"inconclusive: 1.12 µM [activator, full curve, poor fit]"
COc1ccccc1CN(C)C(=O)C(NC(=O)Cc1cccc2ccccc12)C(C)C (centres undefined),–,"inconclusive: 35.5 µM [inhibitor, single point]"
COc1ccc(NC(=O)Nc2nnc(N(C)C3CCCCC3)s2)c(OC)c1,inactive: -6.81% [at 46.1 µM],–
O=C(c1ccc(S(=O)(=O)Nc2ccccc2)cc1)N1CCCCCCC1,–,"inconclusive: 15.8 µM [inhibitor, single point]"
CN(C)/C(=C\C(=O)c1ccccc1)C(=O)c1ccccc1,inactive: 19.2%,–
CCCCn1c(=O)[nH]c(=O)c2c1nc(-c1cc(Cl)c(OC)c(OC)c1)n2C,–,"inconclusive: 0.891 µM [inhibitor, full curve, poor fit]"
Cc1ccc(SCC(=O)N2CC(C)OC(C)C2)cc1 (centres undefined),inactive: 21.6%,–
CCOc1ccc(NC(C)c2cc(Cl)ccc2O)cc1 (centres undefined),inactive: 5.15%,–
CC1CCN(C2=NC(=O)/C(=C/c3ccccc3F)S2)CC1,–,"inconclusive: 20 µM [inhibitor, single point]"
O=c1cc(O)c2sc(Nc3ccc(F)cc3)nc2[nH]1,–,"inconclusive: 31.6 µM [activator, single point]"
CCOC(=O)c1ccc2c(c1)sc(=NC(=O)c1ccco1)n2CCOC,inactive: -5.47%,–
O=C(NCCc1ccccc1)c1c[nH]c2ccc(S(=O)(=O)Nc3ccccc3F)cc2c1=O,–,"inconclusive: 35.5 µM [inhibitor, single point]"
CC1Cc2c([nH]c3ccccc23)C(=O)N1 (centres undefined),inactive: -11.5%,–
O=C(CSc1ncnc2nc[nH]c12)c1ccc2ccccc2c1,inactive: -4.7%,–
Cc1ccc2cc(CCNC(=O)c3cccs3)c(=O)[nH]c2c1C,–,"inconclusive: 2.59 µM [activator, full curve]"
CN1C(=O)/C(=C2\SC(N)=NC2=O)c2ccccc21,–,"inconclusive: 35.5 µM [inhibitor, single point]"
S=c1[nH]nc(C2CCCCC2)n1/N=C/C=C/c1ccccc1,–,"inconclusive: 1.26 µM [inhibitor, full curve]"
CCn1nc(C)c(/C=N/NC(=O)c2c[nH]c3ccccc23)c1C,–,"inconclusive: 1 µM [activator, partial curve, poor fit]"
CCN1CCN(c2nc(N(C)c3ccccc3)nc(N)c2[N+](=O)[O-])CC1,inactive: -17.6%,–
COC(=O)c1ccc(Nc2cc(C)nc3ccc(C)cc23)cc1,–,"inconclusive: 35.5 µM [inhibitor, single point]"
CC(=O)N1c2nc(-c3ccco3)nn2C2(CCCCC2)[C@@H]2CCCC[C@@H]21,–,"inconclusive: 3.98 µM [activator, full curve, poor fit]"

SMILES,"activity change, negative = inhibition",Potency
O=C(c1ccc2c(c1)N(Cc1ccc(F)cc1)C(=O)c1ccccc1S2(=O)=O)N1CCC(Cc2ccccc2)CC1,–,"inconclusive: 14.1 µM [inhibitor, partial curve, poor fit]"
O=C(CCN1CCc2ccccc2C(c2ccccc2)C1)c1ccc2c(c1)OCCO2 (centres undefined),–,"inconclusive: 10 µM [inhibitor, partial curve, poor fit]"
COc1ccccc1N1CCN(C2=CC(=O)CCC2)CC1,–,"inconclusive: 3.66 µM [inhibitor, partial curve, poor fit]"
Cc1cccc(C2NC(=O)c3c(sc(C)c3C)N2)c1O (centres undefined),inactive: -0.433%,–
COCCNC(=O)c1cc(Sc2ccc(F)cc2F)nc2ccccc12,–,"inconclusive: 0.501 µM [inhibitor, full curve, poor fit]"
CC(=O)c1sc(NC(=O)COc2ccc(Br)cc2)nc1C,inactive: 5.93% [at 46.1 µM],–
CCOc1ccccc1NC(=O)C1CCN(C(=O)Cc2ccccc2)CC1,–,"inconclusive: 35.5 µM [inhibitor, single point]"
CCOc1ccccc1C1CC(c2ccc(Br)cc2)Nc2nc(N)nn21 (centres undefined),–,"inconclusive: 16.4 µM [inhibitor, single point]"
Cc1nn(C(C)(C)C)c(OC(=O)C2CCCC2)c1S(=O)(=O)c1ccccc1,–,"inconclusive: 11.2 µM [inhibitor, partial curve, poor fit]"
CC1CC(C)CN(C(=O)c2ccc(N3CC4CC(C3)c3cccc(=O)n3C4)c([N+](=O)[O-])c2)C1 (centres undefined),–,"inconclusive: 1.12 µM [inhibitor, full curve, poor fit]"
CCCCCCCCCCC(C)(C)C(=O)Nc1c(OC)cc(OC)cc1OC,inconclusive: -56.6% [inhibitor],–
O=C(COc1ccccc1[N+](=O)[O-])NCC1(N2CCOCC2)CCCCC1,–,"inconclusive: 1.26 µM [inhibitor, single point]"
CC1CCCC(NC(=O)c2cc(-c3ccncc3)nc3ccccc23)C1C (centres undefined),–,"inconclusive: 11.2 µM [inhibitor, partial curve, poor fit]"
CCOC(=O)c1c(-c2ccc(C)cc2C)csc1NC(=O)CSc1nnnn1C,–,"inconclusive: 5.17 µM [inhibitor, full curve, poor fit]"
Cc1nc(NCCc2ccc(S(N)(=O)=O)cc2)c2c(C)c(C)sc2n1,–,"inconclusive: 1.26 µM [activator, single point]"
COc1ccc(C2C=C(C34CC5CC(CC(C5)C3)C4)NC(=S)N2)cc1OC (centres undefined),–,"inconclusive: 35.5 µM [inhibitor, single point]"
COC(=O)CC1(c2ccccc2)C(=O)c2ccccc2C1=O,inactive: -12.6%,–
O=c1c2c(nc3c(-c4ccc(Cl)cc4)c[nH]n13)CCCC2,–,active: 10 µM
O=C(NC1=NCCS1)c1ccccc1Cl,–,"inconclusive: 35.5 µM [activator, single point]"
COc1ccc2cc(CCNC(=O)c3cccs3)c(=O)[nH]c2c1,–,"inconclusive: 6.51 µM [activator, single point]"
Cc1cc(C(=O)Nc2ccc3c(c2)OCO3)cs1,–,"inconclusive: 20.6 µM [inhibitor, single point]"
CC(C)CCNC1=CC(=O)CC(c2ccccc2)C1 (centres undefined),–,"inconclusive: 35.5 µM [inhibitor, single point]"
